70 sequences from publication PMC7862700 can be followed below.

Protein sequences, listed by entry. Tags and fused reporters are not part of them. Lines headed by an entry give the natural chain unless they say otherwise; changes in a name come on top.
UniProt Q9Y603: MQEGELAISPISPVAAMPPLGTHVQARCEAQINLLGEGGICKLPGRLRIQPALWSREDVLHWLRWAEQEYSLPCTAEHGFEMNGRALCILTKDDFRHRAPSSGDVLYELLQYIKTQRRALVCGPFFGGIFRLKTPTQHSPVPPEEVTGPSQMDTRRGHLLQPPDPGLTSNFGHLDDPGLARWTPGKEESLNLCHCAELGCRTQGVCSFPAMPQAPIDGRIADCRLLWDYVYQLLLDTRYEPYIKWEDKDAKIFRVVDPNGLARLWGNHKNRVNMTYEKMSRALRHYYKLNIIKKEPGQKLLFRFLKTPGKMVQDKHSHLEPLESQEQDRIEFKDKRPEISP
UniProt P41212: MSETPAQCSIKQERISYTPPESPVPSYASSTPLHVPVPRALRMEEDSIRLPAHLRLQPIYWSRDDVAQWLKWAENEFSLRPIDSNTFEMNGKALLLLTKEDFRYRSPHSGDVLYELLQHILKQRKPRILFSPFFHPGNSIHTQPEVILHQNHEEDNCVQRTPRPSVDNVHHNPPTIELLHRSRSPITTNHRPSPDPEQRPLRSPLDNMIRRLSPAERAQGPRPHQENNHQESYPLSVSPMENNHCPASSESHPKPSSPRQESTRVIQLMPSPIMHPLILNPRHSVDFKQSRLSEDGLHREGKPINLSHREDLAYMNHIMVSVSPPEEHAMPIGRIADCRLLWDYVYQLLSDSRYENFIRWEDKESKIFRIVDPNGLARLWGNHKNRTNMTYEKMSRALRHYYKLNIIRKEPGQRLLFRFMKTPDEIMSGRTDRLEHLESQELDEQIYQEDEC

One test has as its target ETV7 (UniProt Q9Y603). Put plainly: DAPPL (digital affinity profiling via proximity ligation, sequencing). The conditions noted are these: 10 mM Tris-HCl pH 7.5, 50 mM NaCl, 1 mM DTT, 4% glycerol, room temperature, 30 min; GST-TFs on glutathione beads, 16-mer random dsDNA library, 0.1% …; high values mean tight binding; double strand, one strand shown; scale: fold enrichment (6-mer frequency, TF over GST control).

The next test concerns the target ETV6 (UniProt P41212). Described as above. The conditions noted are these: 10 mM Tris-HCl pH 7.5, 50 mM NaCl, 1 mM DTT, 4% glycerol, room temperature, 30 min; GST-TFs on glutathione beads, 16-mer random dsDNA library, 0.1% …; high values mean tight binding; double strand, one strand shown; scale: fold enrichment (6-mer frequency, TF over GST control).

The list shows a part of the results, in another mix than the full data. At the low end of the ranking the order means little.

Regarding TAGGTC, the binding signal with ETV7 was 1.11; with ETV6, 0.997.

For CATATC, the binding signal stood at 1.24 with ETV7 and 1.26 in the test with ETV6.

As to GATTCG, the figures for the binding signal with ETV7 and with ETV6 were 1.01 and 0.97, respectively.

For the sequence CGCGCT, the binding signal with ETV7 turned out to be 1.14; in the test with ETV6 it was 1.15.

Regarding AAGACT, the values for the binding signal in the test with ETV7 and with ETV6 were 1.08 and 1.13, respectively.

GTGCAC: the binding signal is 0.939 with ETV7 and 0.869 with ETV6.

In the case of TATGAG, the binding signal with ETV7 was 0.983; with ETV6 it was 0.925.

Consider GGCGTT, for which the binding signal with ETV7 was determined as 0.929; with ETV6, 0.916.

For CCCTCA, the binding signal with ETV7 is 1.07; in the test with ETV6, 1.09.

On to CCAGCA, for which the figures for the binding signal in the test with ETV7 and with ETV6 were 0.931 and 0.871, respectively.

Regarding GGCAAT, the binding signal turned out to be 0.94 with ETV7 and 0.99 in the test with ETV6.

Regarding GTAGAA, the binding signal with ETV7 came to 0.941; with ETV6, 0.945.

Take ACCACA: the binding signal worked out at 0.839 in the test with ETV7 and 1.08 in the test with ETV6.

Consider TTGGAT, for which the binding signal with ETV7 was found to be 1.01; with ETV6, 0.979.

For TAACTG, the results for the binding signal with ETV7 and in the test with ETV6 were 1.28 and 1.26, respectively.

Take ATAGCG: the binding signal with ETV7 is 0.975; with ETV6, 0.977.

Take CATAAT: the binding signal with ETV7 was determined as 1.02; in the test with ETV6 it was 1.07.

As to ATGGTG, the binding signal in the test with ETV7 was 0.988; in the test with ETV6 it was 1.11.

Take ACAAGG: the binding signal amounted to 0.91 in the test with ETV7 and 0.97 with ETV6.

ATCCTA: the binding signal in the test with ETV7 turned out to be 1.37; with ETV6, 1.34.

Take GCTGCT: the results for the binding signal with ETV7 and with ETV6 were 1.21 and 1.27, respectively.

For the sequence CCCGCT, the values for the binding signal in the test with ETV7 and in the test with ETV6 were 1.36 and 1.38, respectively.

With AGGTCC, the binding signal with ETV7 amounted to 0.969; in the test with ETV6 it was 0.996.

On to GTGTTC, for which the values for the binding signal with ETV7 and with ETV6 were 1.11 and 1.09, respectively.

Turning to ACTGTC, the binding signal came out at 0.978 with ETV7 and 0.928 with ETV6.

In the case of TTTTCG, the binding signal in the test with ETV7 is 1.2; in the test with ETV6, 1.09.

As to GACCGC, the values for the binding signal with ETV7 and with ETV6 were 0.849 and 0.969, respectively.

For TGTTAG, the binding signal came out at 0.928 with ETV7 and 0.943 in the test with ETV6.

Consider TAGCAA, for which the figures for the binding signal in the test with ETV7 and with ETV6 were 1.25 and 1.29, respectively.

Turning to GGATGG, the figures for the binding signal in the test with ETV7 and with ETV6 were 1.06 and 0.943, respectively.

Turning to TATTGA, the binding signal in the test with ETV7 turned out to be 1.14; in the test with ETV6, 1.16.

Turning to TGATAC, the binding signal with ETV7 amounted to 0.991; in the test with ETV6, 1.1.

As for GTCACG, in the test with ETV6, the binding signal was determined as 1.04.

Turning to CATGCA, the binding signal was 1.03 with ETV7 and 1.18 with ETV6.

For TGAAAT, the results for the binding signal in the test with ETV7 and with ETV6 were 0.949 and 0.952, respectively.

GTGTTA: the values for the binding signal with ETV7 and with ETV6 were 0.986 and 0.937, respectively.

Consider TCATAG, for which the binding signal with ETV7 stood at 0.966; in the test with ETV6, 0.817.

In the test with ETV6, ATTCGA showed a binding signal of 1.23.

In the case of AGAGCT, the results for the binding signal with ETV7 and with ETV6 were 0.953 and 0.927, respectively.

In turn, GTTTTA had a binding signal with ETV6 of 1.13.

Consider CTAGTG, for which the binding signal with ETV7 was 0.9; with ETV6 it was 0.805.

In turn, GCTGCG yielded a binding signal with ETV6 of 0.96.

GACTTT showed a binding signal with ETV6 of 1.14.

Consider TTCGAC, for which, in the test with ETV6, the binding signal worked out at 1.3.

Sequence CCACCC showed a binding signal with ETV6 of 1.24.

Take CAGCAC: the binding signal came out at 0.971 with ETV7 and 0.918 in the test with ETV6.

GGCCTC gave a binding signal in the test with ETV6 of 1.09.

Take GATACA: the binding signal with ETV7 turned out to be 0.961; with ETV6 it was 0.96.

Consider TGGAAC, for which the binding signal with ETV7 amounted to 0.962; in the test with ETV6, 0.939.

In the test with ETV6, TCTATG had a binding signal of 0.909.

On to ATAGTC, for which the values for the binding signal with ETV7 and with ETV6 were 0.945 and 0.997, respectively.

CCGAAC: the values for the binding signal with ETV7 and with ETV6 were 1.14 and 1.28, respectively.

Take AACCGA: the binding signal in the test with ETV7 turned out to be 0.948; with ETV6, 0.955.

Take TCCCGA: the figures for the binding signal with ETV7 and in the test with ETV6 were 1.35 and 1.22, respectively.

Take CTCCAG: the binding signal in the test with ETV7 worked out at 0.971; in the test with ETV6 it was 0.978.

In the case of ACAAGT, the binding signal turned out to be 0.954 with ETV7 and 0.983 in the test with ETV6.

Regarding GCGTAT, the binding signal in the test with ETV7 stood at 0.955; with ETV6, 0.891.

Regarding GTTGCT, the binding signal in the test with ETV7 is 1.38; in the test with ETV6, 1.29.

GTACTG: the binding signal is 0.938 with ETV7 and 0.9 with ETV6.

In turn, GCAGCT displayed a binding signal in the test with ETV6 of 1.06.

The sequence CGACCA gave a binding signal with ETV6 of 1.33.

Turning to TCTAAC, the binding signal with ETV6 was found to be 1.22.

Regarding TGATTG, the binding signal with ETV7 was found to be 1.05; with ETV6 it was 1.04.

Turning to AGCATA, the results for the binding signal in the test with ETV7 and with ETV6 were 1.01 and 0.917, respectively.

Turning to TATATG, the binding signal in the test with ETV6 amounted to 1.34.

As for ATAGGC, the binding signal with ETV6 is 1.04.

TGCGTT showed a binding signal with ETV6 of 0.969.

In the case of GCGATT, the figures for the binding signal with ETV7 and with ETV6 were 0.916 and 0.926, respectively.

Take AAATCG: the binding signal with ETV7 is 1.08; with ETV6, 1.05.

For the sequence TAGTCA, the binding signal with ETV7 was 0.874; with ETV6, 0.828.
